In assay [1] the target is T1, CMTR1 BiFC fusion (pBiFC-VN173-CMTR1 in the legends; pBiFC-VC155 in the methods) (human) (UniProt Q8N1G2).
T1 sequence: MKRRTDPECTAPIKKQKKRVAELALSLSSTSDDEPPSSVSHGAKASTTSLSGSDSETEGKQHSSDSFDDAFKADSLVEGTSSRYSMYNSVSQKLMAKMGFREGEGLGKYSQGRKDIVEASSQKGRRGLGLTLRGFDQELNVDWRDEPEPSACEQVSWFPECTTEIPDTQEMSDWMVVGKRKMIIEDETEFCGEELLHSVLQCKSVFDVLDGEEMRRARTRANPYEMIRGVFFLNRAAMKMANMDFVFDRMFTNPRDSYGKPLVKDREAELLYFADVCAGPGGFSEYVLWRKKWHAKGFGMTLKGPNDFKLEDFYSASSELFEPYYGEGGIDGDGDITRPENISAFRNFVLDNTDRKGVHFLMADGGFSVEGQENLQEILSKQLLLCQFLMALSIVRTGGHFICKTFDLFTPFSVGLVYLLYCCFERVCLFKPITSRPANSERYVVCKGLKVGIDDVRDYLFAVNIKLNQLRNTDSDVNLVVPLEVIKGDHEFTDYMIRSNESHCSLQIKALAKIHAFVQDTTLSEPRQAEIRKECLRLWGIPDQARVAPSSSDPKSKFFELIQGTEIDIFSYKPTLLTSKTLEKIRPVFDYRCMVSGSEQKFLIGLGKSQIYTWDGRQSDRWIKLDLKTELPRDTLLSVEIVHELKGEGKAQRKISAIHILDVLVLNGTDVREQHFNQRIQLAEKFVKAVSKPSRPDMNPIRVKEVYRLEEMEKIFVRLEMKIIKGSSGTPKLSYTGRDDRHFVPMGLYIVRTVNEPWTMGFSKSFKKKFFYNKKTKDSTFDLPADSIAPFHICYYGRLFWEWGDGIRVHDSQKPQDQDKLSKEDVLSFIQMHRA
The assay can be described thus: split reporter; BiFC in HGC-27 cells co-transfected with the pBiFC-VN173 and pBiFC-VC155 constructs for 24 h, fixed, confocal microscopy; also in cells with sh-Scb or sh-SNORA37 #1.

Sequences of proteins named here, by UniProt entry; tags and fusion partners are left off.
UniProt Q15717: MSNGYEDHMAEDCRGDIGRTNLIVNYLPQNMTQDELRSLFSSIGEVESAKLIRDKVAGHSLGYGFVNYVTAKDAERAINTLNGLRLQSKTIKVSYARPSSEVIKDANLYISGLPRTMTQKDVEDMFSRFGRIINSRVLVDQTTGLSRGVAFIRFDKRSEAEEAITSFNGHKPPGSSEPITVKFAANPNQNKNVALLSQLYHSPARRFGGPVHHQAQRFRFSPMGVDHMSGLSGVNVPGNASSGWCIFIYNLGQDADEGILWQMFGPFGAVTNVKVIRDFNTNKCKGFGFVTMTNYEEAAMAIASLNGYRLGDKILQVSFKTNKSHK
UniProt P26599: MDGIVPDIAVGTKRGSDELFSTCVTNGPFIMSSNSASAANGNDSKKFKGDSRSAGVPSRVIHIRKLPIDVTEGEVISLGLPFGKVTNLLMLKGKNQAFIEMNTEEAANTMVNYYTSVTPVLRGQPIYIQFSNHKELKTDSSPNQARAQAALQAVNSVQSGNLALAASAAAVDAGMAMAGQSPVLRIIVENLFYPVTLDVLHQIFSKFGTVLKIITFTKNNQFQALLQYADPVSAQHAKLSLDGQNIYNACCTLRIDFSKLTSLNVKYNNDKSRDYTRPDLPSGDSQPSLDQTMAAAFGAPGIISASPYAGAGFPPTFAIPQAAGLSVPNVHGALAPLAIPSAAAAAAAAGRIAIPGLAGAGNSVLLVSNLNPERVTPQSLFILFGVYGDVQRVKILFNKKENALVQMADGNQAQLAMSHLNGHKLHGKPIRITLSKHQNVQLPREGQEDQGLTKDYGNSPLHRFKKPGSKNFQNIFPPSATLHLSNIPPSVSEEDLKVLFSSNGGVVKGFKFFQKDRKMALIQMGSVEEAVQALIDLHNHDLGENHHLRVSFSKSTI

Assay [2] addresses T2, cap methyltransferase 1 (CMTR1) (human (endogenous in AGS)) (UniProt Q8N1G2).
T2 sequence: T1 sequence
The assay can be described thus: co-IP; endogenous proteins in AGS cells; Protein A/G Magnetic Beads, western blot; also in cells with stable over-expression or silencing of SNORA37 (interaction facilitated or attenuated). (In general: In western blotting, separated proteins are transferred to a membrane and probed.)

In assay [3] the target is T3, HA-tagged CMTR1 (full-length) (human) (UniProt Q8N1G2).
T3 sequence: T1 sequence
Put plainly: co-IP; AGS cells transfected with full-length or truncations of HA-tagged CMTR1 and Flag-tagged ELAVL1 constructs; Protein A/G Magnetic Beads, western blot.

These are yes or no findings as the source states them, for the method shown. Binding seen in cells or lysates may run through a third protein. Some binding calls cover weakened binding; strength is not graded here. For some of these results: Where a sequence is shown, tags or fusion partners need not be part of it.

“ELAVL1 BiFC fusion (pBiFC-VC155-ELAVL1 in the legends; pBiFC-VN173 in the methods) (from UniProt Q15717 1-326)”: the binding entry in assay [1] is reported as “binds”.

In the case of “ELAV like RNA binding protein 1 (ELAVL1) (from UniProt Q15717 1-326)”, the binding entry in assay [2] was “binds”. Same read-out and setting: next, “polypyrimidine tract-binding protein 1 (PTBP1) (from UniProt P26599 1-557)”: “binds”. Regarding “Flag-tagged ELAVL1 (full-length) (from UniProt Q15717 1-326)”, the binding entry in assay [3] was “binds”.

The record behind these values is paper PMC11737211.
